Out of some 190,000 compounds screened, about 110 (0.058%) were called active. This list was built around the results that the source calls inconclusive (neither active nor inactive); the mix of calls is not that of the screen.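 How the source made its calls: active means fluorescent GTP binding to Rab7 beads changed by at least 20 points from the 100% baseline, either direction, mostly lower; inconclusive means compound itself probably fluorescent, or too few beads counted; inactive means the rest.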
What follows are compounds tested on Rab7 GTPase wild type (dog), Bodipy-FL-GTP binding (assay: modulators of GTP binding to Rab7, primary screen, biochemical, wildtype, multiplex bead flow cytometry (AID 758;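 further: median green fluorescence of bound Bodipy-FL-GTP per Rab7 bead population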)). Conditions: GST-Rab7 beads, fluorescent GTP binding, at 10 µM, actives lie on both sides, untreated = 100%, excess cold GTP = 0%.

| SMILES | GTP binding activity (percent of control) |
| --- | --- |
| COc1ccc(CCNC(=O)CSc2nnc(-c3cccc(F)c3)o2)cc1OC | inconclusive: 105% |
| S=c1[nH]nc(-c2cccnc2)n1/N=C/C(Cl)=C\c1ccccc1 | inconclusive: 92% |
| COc1cc(C(=O)N/N=C/c2ccc(OC)c(CN3CCN(c4ccc(F)cc4)CC3)c2)ccc1O | inconclusive: 93% |
| N#CCCN(/N=C/c1cccnc1)C1=NS(=O)(=O)c2ccccc21 | inactive: 96% |
| CCCC(=O)Nc1nc2c(c(=O)[nH]1)CCCC2 | inconclusive: 100% |
| CCOC(=O)C1CCN(C(=O)Nc2ccc(Cl)cc2)CC1 | inconclusive: 105% |
| O=C(O)c1ccc2nc3c(nc2c1)-c1ccccc1C3=O | inconclusive: 88% |
| c1csc(CNCc2ccncc2)c1 | inconclusive: 101% |
| COc1ccc(C(=O)CSc2ncn[nH]2)cc1OC | inconclusive: 101% |
| O=C(N/N=C/c1ccco1)c1cccc(N2Cc3ccccc3C2)c1 | inconclusive: 92% |
| Cc1ccc(S(=O)(=O)ON=C2CCN(S(=O)(=O)c3ccccc3)CC2)cc1 | inactive: 99% |
| COc1cc(C(C(=O)NCc2ccccc2)N(Cc2ccco2)C(=O)c2cnccn2)cc(OC)c1OC (configuration not stated) | inactive: 101% |
| NC(=O)c1sc2nc3c(c(-c4ccco4)c2c1N)CCC3 | inconclusive: 90% |
| COc1ccc(/C=C2\N=C(SC)N(c3ccccc3OC)C2=O)cc1 | inactive: 97% |
| CCOc1ccccc1N(CC(=O)N/N=C(\C)c1cccc(Br)c1)S(C)(=O)=O | inconclusive: 105% |
| COc1ccc2c(c1)c1nnc(SCC(=O)N3CCCCC3C)nc1n2C (configuration not stated) | inconclusive: 90% |
| Cc1cccc(C(=O)NC(=S)NNC(=O)COc2c(C)cccc2C)c1 | inconclusive: 89% |
| CSc1nsc(/C=C/Nc2ccc(C)cc2)c1C#N | inactive: 101% |
| OCCC1CN(Cc2cnc(-c3ccccc3)s2)CCN1CCc1ccccc1 (configuration not stated) | inactive: 106% |
| O=C(Nc1cccnc1)c1ccc2nc(-c3ccccc3)c(-c3ccccc3)nc2c1 | inconclusive: 97% |
| O=C(Cc1ncc(C(F)(F)F)cc1Cl)NCc1ccco1 | inconclusive: 89% |
| Cc1ccccc1Nc1nn2c(=O)c3ccccc3nc2s1 | inconclusive: 87% |
| CC(c1ccccc1F)n1cc(C(=O)NCCc2ccco2)nn1 (configuration not stated) | inactive: 102% |
| CC(OC(=O)c1ccc2c(=O)n3c(nc2c1)CCCCC3)C(=O)Nc1ccc(Cl)cn1 (configuration not stated) | inconclusive: 104% |

Sorted by heavy-atom count (ascending): 13 of the compounds above.

| SMILES | GTP binding activity (percent of control) |
| --- | --- |
| c1csc(CNCc2ccncc2)c1 | inconclusive: 101% |
| CCCC(=O)Nc1nc2c(c(=O)[nH]1)CCCC2 | inconclusive: 100% |
| COc1ccc(C(=O)CSc2ncn[nH]2)cc1OC | inconclusive: 101% |
| NC(=O)c1sc2nc3c(c(-c4ccco4)c2c1N)CCC3 | inconclusive: 90% |
| Cc1ccccc1Nc1nn2c(=O)c3ccccc3nc2s1 | inconclusive: 87% |
| N#CCCN(/N=C/c1cccnc1)C1=NS(=O)(=O)c2ccccc21 | inactive: 96% |
| COc1ccc(/C=C2\N=C(SC)N(c3ccccc3OC)C2=O)cc1 | inactive: 97% |
| Cc1cccc(C(=O)NC(=S)NNC(=O)COc2c(C)cccc2C)c1 | inconclusive: 89% |
| COc1ccc2c(c1)c1nnc(SCC(=O)N3CCCCC3C)nc1n2C (configuration not stated) | inconclusive: 90% |
| CCOc1ccccc1N(CC(=O)N/N=C(\C)c1cccc(Br)c1)S(C)(=O)=O | inconclusive: 105% |
| COc1ccc(CCNC(=O)CSc2nnc(-c3cccc(F)c3)o2)cc1OC | inconclusive: 105% |
| CC(OC(=O)c1ccc2c(=O)n3c(nc2c1)CCCCC3)C(=O)Nc1ccc(Cl)cn1 (configuration not stated) | inconclusive: 104% |
| COc1cc(C(C(=O)NCc2ccccc2)N(Cc2ccco2)C(=O)c2cnccn2)cc(OC)c1OC (configuration not stated) | inactive: 101% |

Next part.

| SMILES | GTP binding activity (percent of control) |
| --- | --- |
| CCOC(=O)c1c(-c2ccc(C)o2)csc1NC(=O)CSc1nncs1 | inconclusive: 108% |
| CC(C)c1ccc(OCC(O)CN2CCN(c3ccccc3)CC2)cc1 (configuration not stated) | inconclusive: 105% |
| C=C(C)COc1ccc(-c2nc(N)nc(C)c2-c2ccc(OC)cc2)c(O)c1 | inconclusive: 94% |
| O=S(=O)(Nc1nnc(-c2ccccc2)s1)c1ccc(Cl)cc1 | inconclusive: 90% |
| CC(NS(=O)(=O)c1ccccc1)C(=O)NCCc1ccccn1 (configuration not stated) | inconclusive: 98% |
| CC(=O)C(Sc1nccc(-c2cccs2)n1)C(C)=O | inconclusive: 95% |
| CCCCC(CC(O)COCCC)C(=O)NN (configuration not stated) | inconclusive: 97% |
| Cn1c(=O)[nH]c(=O)c2c1nc(N1CCCCCC1)n2CCCSc1nnnn1-c1ccccc1 | inactive: 97% |
| CC(C)(C)NC(=O)NC(=O)CSc1cccc(C(F)(F)F)c1 | inconclusive: 97% |
| CC1CC(C)(C)NC(=S)N1CCCC(=O)Nc1ccc(F)cc1 (configuration not stated) | inactive: 96% |
| c1ccc(-c2cc(-c3nn4c(-c5ccco5)nnc4s3)c3ccccc3n2)cc1 | inconclusive: 90% |
| CN(C)/C=C/C1=CC(=O)CC(C)(C)C1 | inconclusive: 89% |
| CCOC(=O)c1ccc(N=Nc2c(C)c(C#N)c(O)[nH]c2=O)cc1 | inactive: 103% |
| OC(c1ccc(OCc2ccccc2)cc1)c1nnc(-c2ccccc2)o1 (configuration not stated) | inactive: 92% |
| O=c1c2[nH]c3ccccc3c2ncn1CCCn1ccnc1 | inconclusive: 98% |
| O=C1N=C2SCCN2/C1=C\c1ccccc1Cl | inactive: 98% |
| CNCc1ccccc1Sc1cc(O)ccc1O | inconclusive: 99% |
| O=C(Nc1cccc2nsnc12)c1ccc(-c2ccc(Br)cc2)o1 | inconclusive: 91% |
| COCCCNc1nc(=S)[nH]c2cc(OC)c(OC)cc12 | inconclusive: 73% |
| O=C(NCc1ccco1)C1CC(=O)N(c2ccc(O)cc2)C1 (configuration not stated) | inconclusive: 100% |
| Cc1cc(-c2ccc3ccccc3c2)n2ncnc2n1 | inactive: 104% |
| CCOc1ccccc1-n1nnnc1SCC(=O)Nc1cc(C)on1 | inconclusive: 103% |
| CN1/C(=C/C(=S)NC(=O)C2(C)CC2(Cl)Cl)C(C)(C)c2ccccc21 (configuration not stated) | inconclusive: 102% |

Source: PubChem BioAssay AID758 (NMMLSC, 2007)
